From PubChem BioAssay AID2551 (National Center for Advancing Translational Sciences (NCATS), 2010)
About 17,000 (5.5%) of roughly 310,000 compounds were called active. The shares of active, inactive and inconclusive entries below differ from those in the screen. The call rests on the fitted dose curve; in most records, active means well fitted inhibition curve with a large enough effect; inconclusive means small, poorly fitted or top-dose-only effect, or effect the other way; inactive means no such curve, though single readings can be large or run the other way. Potencies beside an inconclusive call are fits to weak or partial responses and may not hold up. Where a SMILES comes first, the peptide text is derived from it. Bridges are numbered along the chain shown (N, C = ends). [ ]: non-standard residue; d: D form. The star is where a group is joined. ξ: configuration not given here. ξDab(CH2SO3H) = NC(CCNCS(=O)(=O)O)C(=O)O; Heptanoyl(6-Me) = CC(C)CCCCC(=O)*; Dab = NCC[CH](N)C(=O)O

Chains of the proteins cited; added tags and fusions are not shown. Lines headed by an entry give the natural chain unless they say otherwise; changes in a name come on top.
UniProt P51450: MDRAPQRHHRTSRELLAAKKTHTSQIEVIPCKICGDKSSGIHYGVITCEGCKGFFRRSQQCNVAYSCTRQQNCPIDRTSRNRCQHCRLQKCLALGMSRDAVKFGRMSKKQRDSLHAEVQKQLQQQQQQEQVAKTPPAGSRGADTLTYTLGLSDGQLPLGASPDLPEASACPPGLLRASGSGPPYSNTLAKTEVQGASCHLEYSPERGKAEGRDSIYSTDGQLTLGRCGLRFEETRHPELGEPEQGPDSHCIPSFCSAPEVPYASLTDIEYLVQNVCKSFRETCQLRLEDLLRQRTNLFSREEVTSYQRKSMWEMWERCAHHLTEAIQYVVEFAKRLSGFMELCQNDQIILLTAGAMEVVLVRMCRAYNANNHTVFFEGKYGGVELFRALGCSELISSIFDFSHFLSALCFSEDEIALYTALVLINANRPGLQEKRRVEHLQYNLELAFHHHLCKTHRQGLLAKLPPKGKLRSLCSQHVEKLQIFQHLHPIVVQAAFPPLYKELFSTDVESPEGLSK

Each compound was assayed against Nuclear receptor ROR-gamma (Mus musculus) (UniProt P51450) (assay: qHTS for inhibitors of ROR gamma transcriptional activity). Settings: Drosophila S2 Gal4-RORgamma UAS-luciferase reporter, 20 h; activity change, negative = inhibition: at 53.6 µM (top of the series).
In short: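 Stably transfected Drosophila Schneider cells are the test system, with ROR gamma fused to Gal4 and luciferase under UAS control; luminescence is read after 20 hr of 700 uM copper sulfate induction at ambient temperature.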
Further: nearly all actives have a fitted effect of over 60% in size.
On the % scale 0 is the no-effect control and ±100 the full control effect; potency means the concentration at half of the fitted maximal effect.

Potency, inconclusive:
COc1ccc(/C=C/C(=O)c2cc(Br)ccc2OC(=O)c2ccco2)cc1OC 35.5 µM [inhibitor, single point]
COc1cccc(C(=O)Nc2cccc(SC)c2)c1 1.26 µM [activator, full curve]
O=C(OCCCN=C1NS(=O)(=O)c2ccccc21)c1ccc(F)cc1 2.51 µM [activator, partial curve]
O=c1c2ccccc2cnn1Cc1n[nH]c(=S)n1-c1ccccc1 20 µM [inhibitor, single point]
COc1ccc(C(=O)NC(C)c2cc(OC)c(OC)cc2Br)cc1 (configuration not stated) 12.6 µM [activator, single point]
O=C(Nc1ccc(S(=O)(=O)Nc2ncccn2)cc1)c1ccccc1Br 5.01 µM [inhibitor, partial curve]
O=c1oc2ccccc2cc1-c1nc2c(s1)CCCC2 5.01 µM [inhibitor, partial curve]
CCN(CC)CCCOC(=O)C1(c2ccccc2)CCCC1 0.282 µM [activator, full curve]
CCN1CCCC1CNc1ncnc2c1[nH]c1ccc(Cl)cc12 (configuration not stated) 35.5 µM [inhibitor, single point]
O=C(NCc1ccccc1)C1=C[C@@H](c2ccc(Br)cc2)C[C@@H](OCc2ccc(CO)cc2)O1 11.2 µM [activator, partial curve]
C[C@H](NC(=O)c1nc[nH]c1C(=O)NCCCCCNC(=O)OC(C)(C)C)C(=O)OCc1ccccc1 22.4 µM [inhibitor, single point]
CNC(=O)c1cc(Oc2ccc(NC(=O)Nc3ccc(Cl)c(C(F)(F)F)c3)cc2)ccn1 12.6 µM [inhibitor, single point]
CCCCC(CC)CNC(=O)CCS(=O)(=O)c1cccc2nonc12 (configuration not stated) 2.51 µM [inhibitor, single point]
CCN(CC)c1ccc(/C=N/n2c(=S)[nH]nc(C)c2=O)cc1 0.282 µM [inhibitor, full curve, poor fit]
Cc1cc(C)cc(OC(C)C(=O)Nc2ccc(S(=O)(=O)Nc3cc(C)nc(C)n3)cc2)c1 (configuration not stated) 11.2 µM [activator, single point]
O=C(CSc1ncnc2c1nnn2Cc1ccc(F)cc1)NCC1CCCO1 (configuration not stated) 35.5 µM [inhibitor, single point]
CN(C)c1ccc(/C=C(\C#N)C(=O)c2ccccc2)cc1 20 µM [activator, partial curve]
O=C(NCc1cccs1)C1CCN(c2ccc(S(=O)(=O)N3CCOCC3)cc2Cl)CC1 22.4 µM [activator, single point]
O=C(/C=C/c1cccc([N+](=O)[O-])c1)Nc1ccccn1 3.98 µM [activator, single point]
CCN(CC)S(=O)(=O)c1ccc(N2CCOCC2)c(NC(=O)Cc2ccc(Cl)cc2)c1 10 µM [activator, partial curve, poor fit]
Cc1ccc(-n2nc(C)c3c(C)c(CCC(=O)Nc4ccc(CN5CCCC5)cc4)c(C)nc32)cc1 35.5 µM [inhibitor, single point]
Cc1ccc(-c2csc(-c3c[nH]c4ccccc34)n2)cc1 0.178 µM [activator, full curve, poor fit]
CCOC(=O)c1cc(CC)sc1NC(=O)c1cccc(N2C(=O)CCC2=O)c1 5.62 µM [inhibitor, single point]
CCOc1ccc(NC(=O)CC2NCCNC2=O)cc1 (configuration not stated) 35.5 µM [activator, single point]
O=c1oc(-c2ccccc2)nc2c1cnn2-c1ccccc1 0.708 µM [inhibitor, single point]
O=C(COC(=O)c1cc2ccccc2o1)c1ccccc1 0.501 µM [inhibitor, single point]
Cc1cc(C2=NNC(=NC3CC3)SC2)c(C)n1Cc1ccco1 25.1 µM [inhibitor, single point]
CCOC(=O)N1CCN(C(=O)CCc2ccc(S(=O)(=O)NCCc3ccccc3)cc2)CC1 11.2 µM [activator, partial curve]
CCc1cccc(CC)c1NC(=O)COC(=O)/C(C#N)=C/c1ccc(OC)cc1 25.1 µM [activator, single point]
CC1=NN(c2ccc(Cl)cc2)C(=O)C1C(c1cccc(O)c1)c1c(C)[nH]n(-c2ccc(Cl)cc2)c1=O (configuration not stated) 11.2 µM [activator, partial curve]
CCc1ccc(N(CC(=O)Nc2ccc(OC)cc2OC)S(C)(=O)=O)cc1 31.6 µM [activator, single point]
CCC(C)C1NC(=O)C(CCNCS(=O)(=O)O)NC(=O)C(NC(=O)C(CCNCS(=O)(=O)O)NC(=O)C(NC(=O)C(CCNCS(=O)(=O)O)NC(=O)CCCCC(C)C)C(C)O)CCNC(=O)C(C(C)O)NC(=O)C(CCNCS(=O)(=O)O)NC(=O)C(CCNCS(=O)(=O)O)NC(=O)C(C(C)CC)NC1=O (configuration not stated) ({Heptanoyl(6-Me)}-[ξDab(CH2SO3H)]T[ξDab(CH2SO3H)][Dab][ξDab(CH2SO3H)]II[ξDab(CH2SO3H)][ξDab(CH2SO3H)]T; lactam 4-C; configuration not given here) 11.2 µM [inhibitor, partial curve, poor fit]
CCOC(=O)c1c(C)oc2ccc(OCC(=O)N(CC)CC)cc12 15.8 µM [inhibitor, single point]
Cc1cccc(NC(=O)Nc2ccc(Oc3c(F)c(F)c(F)c(F)c3F)cc2)c1 15.8 µM [inhibitor, single point]
Cc1ccc2c(C)nc(Nc3nc(CSc4nnc(C)s4)cc(=O)[nH]3)nc2c1 31.6 µM [inhibitor, single point]
CN(C)c1ccc(-c2ccc3c(=O)c4ccccc4n(C)c3c2)cn1 35.5 µM [inhibitor, single point]
C=CCn1c(SCC(=O)N2CCOCC2)nc2scc(-c3ccco3)c2c1=O 2.82 µM [inhibitor, single point]
CC1CC1c1ccc(/C=C(\C#N)C(=O)Nc2cccc(Cl)c2Cl)o1 (configuration not stated) 17.8 µM [activator, partial curve]

Random excerpt: three records from the list.
Potency, inconclusive:
C[C@H](NC(=O)c1nc[nH]c1C(=O)NCCCCCNC(=O)OC(C)(C)C)C(=O)OCc1ccccc1 22.4 µM [inhibitor, single point]
Cc1cccc(NC(=O)Nc2ccc(Oc3c(F)c(F)c(F)c(F)c3F)cc2)c1 15.8 µM [inhibitor, single point]
CCOC(=O)N1CCN(C(=O)CCc2ccc(S(=O)(=O)NCCc3ccccc3)cc2)CC1 11.2 µM [activator, partial curve]

Following part.

Potency, active:
Cc1c(C(=O)NN)sc(-c2ccccc2)c1C#N 10 µM
Cc1ccccc1NC1=NC(=S)N(c2ccccc2)C12CCCCC2 3.55 µM
CCOC(=O)N1CCN(C(=S)NC(=O)/C=C/c2ccc(C)cc2)CC1 5.01 µM
Cc1sc2nc(CN3CCOCC3)nc(NCCc3ccccc3)c2c1C 7.08 µM
COC(=O)c1ccc(-c2noc(CN(Cc3nccn3C)C(C)C)n2)cc1 10 µM
CCN(CC)S(=O)(=O)c1ccc(C(=O)NC(=S)N(CCO)Cc2ccccc2)cc1 1.12 µM
CC(/C=C/c1ccccc1)=N\NC(=O)c1ccncc1 7.08 µM
CCOc1cc2[nH]c(=S)n(C(C)C)c(=O)c2cc1OCC 2 µM
S=C(Nc1ccc(Oc2ccccc2)cc1)N1CCN(c2ccccn2)CC1 11.2 µM
COc1ccccc1C(=O)NC(=S)Nc1ccccc1N1CCCC1 10 µM
CS(=O)(=O)c1ccccc1-c1nnc(NC(=O)Cc2ccccc2)o1 11.2 µM
COCc1nc2ccccc2n1Cc1cccc(C)c1 12.6 µM
Cc1ccc(-n2c(-c3ccncc3)n[nH]c2=S)c(C)c1 11.2 µM
Cc1ccc(C(=O)c2c(C)oc3c2C(=O)C(=O)c2ccccc2-3)cc1 5.01 µM
O=C1NC2(CCCCC2)N=C1c1ccc(Br)cc1 12.6 µM
O=c1c2ccccc2[nH]c(=S)n1Cc1ccccc1 3.98 µM
COc1ccc(C(C[N+](=O)[O-])c2c(-c3ccccc3)cc3ccccn23)cc1OC (configuration not stated) 8.91 µM
O=C(NC(=S)Nc1cc(C(F)(F)F)ccc1N1CCOCC1)c1ccco1 1.41 µM
O=C(Nc1ncc(Cc2ccc(Cl)cc2Cl)s1)c1ccc([N+](=O)[O-])cc1 2.24 µM

Activity change, negative = inhibition, inactive:
COCCSc1nnc(NC(=O)C2CC(=O)N(CCc3ccc(F)cc3)C2)s1 (configuration not stated) -1.9%
COc1ccccc1-c1cc(C(=O)Nc2sc3c(c2C#N)CCC(C)C3)c2ccccc2n1 (configuration not stated) 7.66%
CCN(CC)CCNC(=O)C12CC3CC(CC(C3)C1)C2 9.26%
C=CCn1c(SCC(=O)Nc2ccc3c(c2)OCO3)nnc1-c1ccccc1OC 34%
CCOC(=O)N1CCN(c2c(N3CCN(c4cccc(C)c4C)CC3)c(=O)c2=O)CC1 8.03%
C/C(=N/NC(=O)CN1CCN(S(=O)(=O)c2ccc(Br)cc2)CC1)c1cccnc1 1%
O=C(O)CCCN1C(=O)/C(=C\c2ccccc2OCc2ccccc2)SC1=S 16.6%
C[C@H]1O[C@@H](n2cnc3c(N)ncnc32)C[C@@H]1OP(=O)(O)OP(=O)(O)OP(=O)(O)O -15.3%
COc1ccc(NC(=O)C2CCCN(C(=O)Nc3cccc(OC)c3)C2)cc1 (configuration not stated) 8.71%
O=C(CSc1nnnn1-c1ccccc1)Nc1ccccc1 25.4%
